# PubChem BioAssay AID743121 – NCATS | 2013
# Aim: 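Genes whose silencing strengthens cell killing by camptothecin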 (primary screen)
# System: MDA-MB-231 cells, a human breast cancer line
# Reagents: single siRNA against human genes, 20 nM siRNA (0.8 pmol per well)
# Timing: 120 h (drug added 48 h after transfection, read 72 h later)
# Conditions: camptothecin 20 nM (about EC30) for 72 h; vehicle 0.1% DMSO in parallel plates
# Detection: 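Cell viability by ATP luminescence (CellTiter-Glo) as % of non-targeting siRNA wells, and the log2 ratio of viability without drug over viability with camptothecin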
# Reading the numbers: log2 vehicle/camptothecin viability: higher = stronger sensitisation to camptothecin; viability with camptothecin and viability without drug: higher = more viable cells
# Active means: 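Active genes have an RSA gene-level p-value below 0.001, computed from the ratios of their separate siRNAs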
# The deposit covers about 26,000 reagents; shown is a random part of them. Over the whole deposit, 167 (0.63%) were called active. 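Calls are per gene from RSA p-values that are not deposited; an individual active-marked siRNA can sensitise only weakly.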 A number with no mark means an inactive call. Reagents against one gene are numbered here.
gene,reagent no.,log2 vehicle/camptothecin viability,viability with camptothecin (% of control),viability without drug (% of control)
NCOA7,1,-0.0259,102,99.9
NCOA7,2,-0.154,35.1,31.5
NCOA7,3,-0.0924,44.6,41.8
NCOA7,4,-0.0557,106,102
MTTP,1,0.899,29.8,55.7
MTTP,2,-0.0504,104,101
MTTP,3,0.0606,60.6,63.2
MTTP,4,0.069,87.7,92
HIF1AN,1,-0.397,68.8,52.3
HIF1AN,2,0.136,57.9,63.7
HIF1AN,3,-0.141,6.9,6.26
INPP5F,1,-0.0708,53.2,50.6
INPP5F,2,-0.0228,63.5,62.5
INPP5F,3,-0.00875,101,101
INPP5F,4,0.197,19.1,21.9
INPP5F,5,0.00339,107,107
INPP5F,6,-0.559,61.9,42
INPP5F,7,-0.125,47.3,43.3
INPP5F,8,0.318,72.5,90.3
IRF2BPL,1,-0.55,77.2,52.8
IRF2BPL,2,-0.46,96,69.8
IRF2BPL,3,-0.0497,116,112
IRF2BPL,4,-0.177,107,94.8
DDX41,1,-0.336,57.2,45.3
DDX41,2,-0.519,50.1,34.9
DDX41,3,-0.181,54.5,48.1
VRK1,1,-0.102,108,101
VRK1,2,0.196,75.9,86.9
VRK1,3,-0.367,94.9,73.5
VRK1,4,-0.482,81.3,58.2
PAX9,1,0.343,51,64.7
PAX9,2,-0.289,124,102
PAX9,3,-0.0728,83.2,79.1
PARK7,1,0.181,101,114
PARK7,2,-0.136,104,94.5
PARK7,3,0.27,82.1,99
PARK7,4,-0.256,32.2,27
LOX,1,0.117,41,44.5
LOX,2,-0.577,79.5,53.3
LOX,3,-0.127,107,98.3
SSPN,1,0.072,35.9,37.8
SSPN,2,0.124,71.9,78.4
SSPN,3,0.14,82.3,90.6
SSPN,4,-0.108,89.5,83
UBL7,1,-0.267,90.5,75.3
UBL7,2,-0.356,72,56.2
UBL7,3,-0.238,76.1,64.6
UBL7,4,-0.83,25,14.1
RHOB,1,-0.0188,48.5,47.8
RHOB,2,-0.461,108,78.4
RHOB,3,-0.205,66.3,57.5
MGAM2,1,-0.274,81.1,67.1
MGAM2,2,0.306,67.1,82.9
MGAM2,3,-0.148,53,47.8
UQCRH,1,-0.134,94,85.7
UQCRH,2,-0.146,100,90.4
UQCRH,3,-0.0233,83.6,82.2
FKBP5,1,0.533,38.4,55.6
FKBP5,2,-0.247,121,102
FKBP5,3,-0.569,101,67.9
FKBP5,4,-0.016,102,101
RABGGTA,1,-0.474,43.7,31.5
RABGGTA,2,-0.09,92.1,86.5
RABGGTA,3,-0.145,107,96.9
RABGGTA,4,-0.358,86.9,67.8
ABCB6,1,-0.17,68,60.5
ABCB6,2,-0.59,85.6,56.9
ABCB6,3,-0.131,97.1,88.7
ABCB6,4,-0.239,101,85.5

5 consecutive entries from above, for reference:
gene,reagent no.,log2 vehicle/camptothecin viability,viability with camptothecin (% of control),viability without drug (% of control)
INPP5F,1,-0.0708,53.2,50.6
INPP5F,2,-0.0228,63.5,62.5
INPP5F,3,-0.00875,101,101
INPP5F,4,0.197,19.1,21.9
INPP5F,5,0.00339,107,107
